Drawing on article doi:10.1101/2024.07.03.601239, this text covers binding for seven molecules.

Amino acid sequences for entries named in this document (tags omitted).
UniProt Q9UJV9: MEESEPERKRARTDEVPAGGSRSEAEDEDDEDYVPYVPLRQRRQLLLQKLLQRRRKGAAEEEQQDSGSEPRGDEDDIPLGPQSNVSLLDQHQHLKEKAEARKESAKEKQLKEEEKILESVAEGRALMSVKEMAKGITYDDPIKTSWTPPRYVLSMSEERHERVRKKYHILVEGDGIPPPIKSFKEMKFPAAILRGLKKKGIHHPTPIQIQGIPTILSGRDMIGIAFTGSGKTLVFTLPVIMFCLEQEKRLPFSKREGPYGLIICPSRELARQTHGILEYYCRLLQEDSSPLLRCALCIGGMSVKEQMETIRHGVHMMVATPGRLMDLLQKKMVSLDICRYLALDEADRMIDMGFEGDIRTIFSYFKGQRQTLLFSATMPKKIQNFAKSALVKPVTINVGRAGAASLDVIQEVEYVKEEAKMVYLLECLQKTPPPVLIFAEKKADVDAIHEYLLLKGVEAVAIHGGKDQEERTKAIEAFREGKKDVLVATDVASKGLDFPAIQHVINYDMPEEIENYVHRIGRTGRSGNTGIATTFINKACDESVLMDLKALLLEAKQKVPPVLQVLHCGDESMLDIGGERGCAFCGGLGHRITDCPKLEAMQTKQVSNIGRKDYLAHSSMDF
UniProt O75152: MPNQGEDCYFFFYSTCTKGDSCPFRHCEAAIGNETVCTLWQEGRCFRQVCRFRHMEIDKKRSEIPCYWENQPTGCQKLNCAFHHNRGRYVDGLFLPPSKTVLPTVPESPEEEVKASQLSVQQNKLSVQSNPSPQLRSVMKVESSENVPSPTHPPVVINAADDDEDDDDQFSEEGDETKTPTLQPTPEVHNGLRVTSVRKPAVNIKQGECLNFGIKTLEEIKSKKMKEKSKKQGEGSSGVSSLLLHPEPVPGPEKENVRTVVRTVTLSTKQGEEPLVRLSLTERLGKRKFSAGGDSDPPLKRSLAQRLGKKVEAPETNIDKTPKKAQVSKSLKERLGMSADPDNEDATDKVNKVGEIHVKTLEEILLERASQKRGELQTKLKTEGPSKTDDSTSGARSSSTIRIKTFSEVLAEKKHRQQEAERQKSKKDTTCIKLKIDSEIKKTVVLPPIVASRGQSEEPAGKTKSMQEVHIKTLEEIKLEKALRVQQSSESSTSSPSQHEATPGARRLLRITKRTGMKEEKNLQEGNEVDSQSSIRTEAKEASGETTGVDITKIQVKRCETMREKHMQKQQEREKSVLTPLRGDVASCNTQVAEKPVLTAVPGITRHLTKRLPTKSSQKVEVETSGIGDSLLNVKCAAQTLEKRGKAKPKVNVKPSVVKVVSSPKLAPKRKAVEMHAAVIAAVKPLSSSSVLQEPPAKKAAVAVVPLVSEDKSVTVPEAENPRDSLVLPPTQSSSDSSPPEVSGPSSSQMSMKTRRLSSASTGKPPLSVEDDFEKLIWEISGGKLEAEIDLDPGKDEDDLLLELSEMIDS
UniProt O94913: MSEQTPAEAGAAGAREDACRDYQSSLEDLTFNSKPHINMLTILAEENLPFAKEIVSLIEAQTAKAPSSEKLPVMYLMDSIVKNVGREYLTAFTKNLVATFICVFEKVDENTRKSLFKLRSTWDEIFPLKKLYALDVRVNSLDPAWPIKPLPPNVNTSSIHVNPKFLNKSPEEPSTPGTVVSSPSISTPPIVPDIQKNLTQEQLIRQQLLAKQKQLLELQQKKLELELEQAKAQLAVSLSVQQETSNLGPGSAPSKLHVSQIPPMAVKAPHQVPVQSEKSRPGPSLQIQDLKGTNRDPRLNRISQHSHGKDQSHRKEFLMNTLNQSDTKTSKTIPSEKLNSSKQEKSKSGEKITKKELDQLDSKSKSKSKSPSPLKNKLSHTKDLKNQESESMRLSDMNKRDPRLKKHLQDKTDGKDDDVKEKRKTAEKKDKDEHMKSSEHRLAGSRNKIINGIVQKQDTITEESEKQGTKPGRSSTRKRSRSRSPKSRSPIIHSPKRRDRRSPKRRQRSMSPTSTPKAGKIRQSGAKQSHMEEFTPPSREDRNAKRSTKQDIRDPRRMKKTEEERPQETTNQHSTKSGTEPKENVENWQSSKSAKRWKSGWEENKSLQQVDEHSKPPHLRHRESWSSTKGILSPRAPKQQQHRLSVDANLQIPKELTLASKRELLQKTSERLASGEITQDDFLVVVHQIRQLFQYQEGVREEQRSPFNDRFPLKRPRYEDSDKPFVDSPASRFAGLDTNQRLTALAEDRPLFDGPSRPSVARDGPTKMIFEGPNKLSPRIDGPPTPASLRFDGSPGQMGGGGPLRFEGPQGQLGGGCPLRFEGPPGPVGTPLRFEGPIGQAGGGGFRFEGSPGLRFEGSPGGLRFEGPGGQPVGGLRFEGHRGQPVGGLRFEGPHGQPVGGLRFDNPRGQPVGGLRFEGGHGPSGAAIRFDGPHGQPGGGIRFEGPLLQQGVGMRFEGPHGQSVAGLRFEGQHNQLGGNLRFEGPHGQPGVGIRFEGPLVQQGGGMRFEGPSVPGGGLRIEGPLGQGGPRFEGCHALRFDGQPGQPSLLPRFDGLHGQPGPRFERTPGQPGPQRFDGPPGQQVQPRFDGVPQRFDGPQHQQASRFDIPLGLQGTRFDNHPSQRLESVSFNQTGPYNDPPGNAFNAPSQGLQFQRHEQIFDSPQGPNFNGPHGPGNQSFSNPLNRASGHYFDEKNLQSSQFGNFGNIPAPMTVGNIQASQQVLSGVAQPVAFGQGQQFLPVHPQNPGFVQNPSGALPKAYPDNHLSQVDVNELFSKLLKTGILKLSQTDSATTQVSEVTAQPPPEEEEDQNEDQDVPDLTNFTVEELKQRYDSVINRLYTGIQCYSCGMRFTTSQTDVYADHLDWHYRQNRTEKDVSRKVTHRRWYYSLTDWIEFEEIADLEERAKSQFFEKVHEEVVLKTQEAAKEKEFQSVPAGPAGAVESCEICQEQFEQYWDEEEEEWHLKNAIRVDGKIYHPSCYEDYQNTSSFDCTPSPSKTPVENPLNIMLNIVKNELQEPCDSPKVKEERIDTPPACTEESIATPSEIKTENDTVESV

Results are given in words; binding and its absence hold for the method and conditions named. Binding seen in cells or lysates may run through a third protein. These calls come from enrichment with a bait or labelling near it, and not all partners need be listed. Tags and fused reporters may be left off the sequences shown.

Common to all, as to assay: proximity labelling
Experiment [1] deals with T1, PAXBP1, miniTurbo-tagged bait for reciprocal BioID (human) (UniProt Q9Y5B6).
T1 sequence: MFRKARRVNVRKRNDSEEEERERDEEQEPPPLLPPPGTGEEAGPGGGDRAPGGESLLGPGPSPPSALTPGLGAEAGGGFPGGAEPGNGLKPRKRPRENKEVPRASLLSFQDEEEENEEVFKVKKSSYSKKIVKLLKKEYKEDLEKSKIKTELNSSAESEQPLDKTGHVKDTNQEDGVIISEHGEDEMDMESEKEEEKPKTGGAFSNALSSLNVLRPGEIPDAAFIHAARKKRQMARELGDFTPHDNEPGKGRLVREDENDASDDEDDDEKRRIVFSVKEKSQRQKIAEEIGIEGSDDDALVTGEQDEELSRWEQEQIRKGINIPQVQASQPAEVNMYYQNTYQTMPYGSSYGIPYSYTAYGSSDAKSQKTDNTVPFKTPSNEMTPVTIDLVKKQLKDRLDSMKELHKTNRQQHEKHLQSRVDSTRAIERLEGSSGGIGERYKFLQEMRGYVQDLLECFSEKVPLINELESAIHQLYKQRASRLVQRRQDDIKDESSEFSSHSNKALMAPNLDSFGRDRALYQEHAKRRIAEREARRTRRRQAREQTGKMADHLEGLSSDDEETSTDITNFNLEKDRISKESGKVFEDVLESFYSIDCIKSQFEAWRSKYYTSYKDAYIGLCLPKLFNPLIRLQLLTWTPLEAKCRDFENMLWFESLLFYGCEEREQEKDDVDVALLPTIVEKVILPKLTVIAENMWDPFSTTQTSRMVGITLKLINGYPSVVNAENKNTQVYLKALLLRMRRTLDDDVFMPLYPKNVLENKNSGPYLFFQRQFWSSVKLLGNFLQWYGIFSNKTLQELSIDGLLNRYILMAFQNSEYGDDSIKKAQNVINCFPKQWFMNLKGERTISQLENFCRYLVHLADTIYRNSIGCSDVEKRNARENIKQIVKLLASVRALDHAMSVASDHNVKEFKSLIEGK

Experiment [2] concerns the target T2, C19ORF47, miniTurbo-tagged bait for reciprocal BioID (human) (UniProt Q8N9M1).
T2 sequence: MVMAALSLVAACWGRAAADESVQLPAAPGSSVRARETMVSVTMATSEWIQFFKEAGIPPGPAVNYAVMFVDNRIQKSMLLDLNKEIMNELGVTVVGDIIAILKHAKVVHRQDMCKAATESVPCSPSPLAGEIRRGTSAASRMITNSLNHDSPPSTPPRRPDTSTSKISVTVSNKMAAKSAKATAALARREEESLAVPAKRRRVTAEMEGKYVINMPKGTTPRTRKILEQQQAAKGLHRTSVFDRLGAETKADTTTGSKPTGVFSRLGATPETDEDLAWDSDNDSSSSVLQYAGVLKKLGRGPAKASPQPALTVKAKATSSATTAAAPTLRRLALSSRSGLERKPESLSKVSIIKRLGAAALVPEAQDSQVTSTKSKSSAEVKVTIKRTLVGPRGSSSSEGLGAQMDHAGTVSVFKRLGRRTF

The target of experiment [3] is T3, PPIL4, miniTurbo-tagged bait for reciprocal BioID (human) (UniProt Q8WUA2).
T3 sequence: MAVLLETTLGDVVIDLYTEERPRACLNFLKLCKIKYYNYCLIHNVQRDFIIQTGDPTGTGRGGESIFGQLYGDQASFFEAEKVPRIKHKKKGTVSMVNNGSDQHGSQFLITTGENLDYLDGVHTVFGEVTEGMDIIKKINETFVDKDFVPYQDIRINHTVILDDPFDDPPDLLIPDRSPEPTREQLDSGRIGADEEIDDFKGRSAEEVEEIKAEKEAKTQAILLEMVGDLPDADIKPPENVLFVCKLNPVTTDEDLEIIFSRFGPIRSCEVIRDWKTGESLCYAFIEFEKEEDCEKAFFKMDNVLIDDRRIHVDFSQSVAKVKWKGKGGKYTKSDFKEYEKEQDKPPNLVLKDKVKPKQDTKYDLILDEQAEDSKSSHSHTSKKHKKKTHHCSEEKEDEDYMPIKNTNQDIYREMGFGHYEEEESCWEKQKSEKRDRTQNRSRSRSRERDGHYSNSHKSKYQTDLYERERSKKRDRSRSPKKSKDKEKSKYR

Consider DDX41 (from UniProt Q9UJV9 1-622), for which the binding entry in experiment [1] is given as “binds”.

ZC3H11A (from UniProt O75152 1-810): the binding result in experiment [2] was “binds”.

PCF11 (from UniProt O94913 1-1555): the binding result in experiment [3] was “binds”.

B1: RPRD1B (endogenous prey) (protein, UniProt Q9NQG5 1-326)
chain: MSSFSESALEKKLSELSNSQQSVQTLSLWLIHHRKHAGPIVSVWHRELRKAKSNRKLTFLYLANDVIQNSKRKGPEFTREFESVLVDAFSHVAREADEGCKKPLERLLNIWQERSVYGGEFIQQLKLSMEDSKSPPPKATEEKKSLKRTFQQIQEEEDDDYPGSYSPQDPSAGPLLTEELIKALQDLENAASGDATVRQKIASLPQEVQDVSLLEKITDKEAAERLSKTVDEACLLLAEYNGRLAAELEDRRQLARMLVEYTQNQKDVLSEKEKKLEEYKQKLARVTQVRKELKSHIQSLPDLSLLPNVTGGLAPLPSAGDLFSTD
Turning to B1, the binding result in experiment [3] is recorded as “binds”.

B2: POLDIP3 (protein, UniProt Q9BY77 1-421)
chain: MADISLDELIRKRGAAAKGRLNARPGVGGVRSRVGIQQGLLSQSTRTATFQQRFDARQKIGLSDARLKLGVKDAREKLLQKDARFRIKGKVQDAREMLNSRKQQTTVPQKPRQVADAREKISLKRSSPAAFINPPIGTVTPALKLTKTIQVPQQKAMAPLHPHPAGMRINVVNNHQAKQNLYDLDEDDDGIASVPTKQMKFAASGGFLHHMAGLSSSKLSMSKALPLTKVVQNDAYTAPALPSSIRTKALTNMSRTLVNKEEPPKELPAAEPVLSPLEGTKMTVNNLHPRVTEEDIVELFCVCGALKRARLVHPGVAEVVFVKKDDAITAYKKYNNRCLDGQPMKCNLHMNGNVITSDQPILLRLSDSPSMKKESELPRRVNSASSSNPPAEVDPDTILKALFKSSGASVTTQPTEFKIKL
For the molecule B2, the binding entry in experiment [2] is recorded as “binds”.

B3: FYTTD1 (protein, UniProt Q96QD9 1-318)
chain: MNRFGTRLVGATATSSPPPKARSNENLDKIDMSLDDIIKLNRKEGKKQNFPRLNRRLLQQSGAQQFRMRVRWGIQQNSGFGKTSLNRRGRVMPGKRRPNGVITGLAARKTTGIRKGISPMNRPPLSDKNIEQYFPVLKRKANLLRQNEGQRKPVAVLKRPSQLSRKNNIPANFTRSGNKLNHQKDTRQATFLFRRGLKVQAQLNTEQLLDDVVAKRTRQWRTSTTNGGILTVSIDNPGAVQCPVTQKPRLTRTAVPSFLTKREQSDVKKVPKGVPLQFDINSVGKQTGMTLNERFGILKEQRATLTYNKGGSRFVTVG
In the case of B3, in experiment [2], the binding result is “binds”.

B4: NCBP3 (protein, UniProt Q53F19 1-620)
chain: MAAVRGLRVSVKAEAPAGPALGLPSPEAESGVDRGEPEPMEVEEGELEIVPVRRSLKELIPDTSRRYENKAGSFITGIDVTSKEAIEKKEQRAKRFHFRSEVNLAQRNVALDRDMMKKAIPKVRLETIYICGVDEMSTQDVFSYFKEYPPAHIEWLDDTSCNVVWLDEMTATRALINMSSLPAQDKIRSRDASEDKSAEKRKKDKQEDSSDDDEAEEGEVEDENSSDVELDTLSQVEEESLLRNDLRPANKLAKGNRLFMRFATKDDKKELGAARRSQYYMKYGNPNYGGMKGILSNSWKRRYHSRRIQRDVIKKRALIGDDVGLTSYKHRHSGLVNVPEEPIEEEEEEEEEEEEEEEEDQDMDADDRVVVEYHEELPALKQPRERSASRRSSASSSDSDEMDYDLELKMISTPSPKKSMKMTMYADEVESQLKNIRNSMRADSVSSSNIKNRIGNKLPPEKFADVRHLLDEKRQHSRPRPPVSSTKSDIRQRLGKRPHSPEKAFSSNPVVRREPSSDVHSRLGVPRQDSKGLYADTREKKSGNLWTRLGSAPKTKEKNTKKVDHRAPGAEEDDSELQRAWGALIKEKEQSRQKKSRLDNLPSLQIEVSRESSSGSEAES
Take B4: the binding entry in experiment [2] was “binds”.
